## Library screening results

Measurements from “University of Dundee, Small-Polar-MMV Screening Library” (2021), ChEMBL document CHEMBL3988442.

Results are given as percent effect.
The record does not define 0% and 100%; most values in the screen are far below 50% and negative numbers occur (in some assays of this library far below -100).
The compounds are a random part of those screened.

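Whole-cell assay for inhibitors of Mycobacterium tuberculosis growth, labelled Cornell in the record; the read-out is not stated. The concentration is filed as 10 mM, unlikely as a test dose, so the dose is not known. The record gives no direction; compounds strong in two other growth screens of this library score well above the rest, so higher reads as stronger inhibition. Of about 53,000 compounds tested this way, about 900 (1.7%) reached 50% or more in at least one test.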

* C1CCC(c2nc3c(c(N4CC(N5CCOCC5)C4)n2)CCNCC3)C1 | 11.02%
* CN(C)Cc1ccccc1NC(=O)c1ccc(C#N)cc1 | 13.38%
* CN(CC(=O)N(CCC#N)c1ccccc1)C1CCc2ccccc21 (centres undefined) | 6.676%
* CCN(Cc1ccco1)C(C)c1nc(C(C)C)no1 (centres undefined) | -26.8%
* O=C(O)C(F)(F)F.[H][C@@]12CN(CC)C[C@]1([H])[C@@H](OC)CCN2C(=O)Cc1ccsc1 | 28.41%
* CC1CCN(c2ncc(-c3ccccc3F)c(-c3nccn3C)n2)CC1 | -10.24%
* CC(=O)N(CCc1nc(-c2cc(C(N)=O)co2)cs1)C(C)C | 5.768%
* CCc1cc(N2CCC(NC(=O)CCC3CCCO3)CC2)ncn1 (centres undefined) | -3.43%
* Cc1ccc2c(c1)OC(C)CN2C(=O)c1c[nH]c(C)cc1=O (centres undefined) | 16.46%
* COc1ccc(N2Cc3nc(=O)n(C(C)C)n3C2=O)cc1 | 18.66%
* Cc1nc(CNc2nc3c(s2)c(C)nn3C)cs1 | 88.41%
* [H][C@@]12COC[C@]1([H])[C@@H](OC)CN2C(=O)c1ccc2c(c1)OCO2 | -17.22%
* c1ccc(-c2nc(CNC3CCc4ncnn4C3)co2)cc1 (centres undefined) | 7.939%
* Cc1nn(C)c(C)c1-c1cc(-c2cc(CC(=O)O)cs2)nc(N)c1C#N | 3.732%
* CN1CCC(C(=O)N2CCCN(c3cccnn3)CC2)C1 (centres undefined) | 23.76%
* NCc1ccccc1Sc1ccc(O)cc1.O=C(O)/C=C\C(=O)O | 11.62%
* CCc1cc(NCC(N)=O)nc(N2CCCCC2)n1 | 7.118%
* CC(C)c1ccn(C2(C(=O)O)CCN(c3cc(C(N)=O)ccn3)CC2)n1 | -11.15%
* Cc1c(CS(C)(=O)=O)cccc1NCC1CCCCC1 | -17.98%
* [H][C@@]12COC[C@]1(COc1cccnc1)CN(C(=O)c1ccc(C)nc1)C2 | -24.63%
* Cc1cnn(C2CCCN(C(=O)Cc3ccc(C)s3)C2)c1 (centres undefined) | 15.65%
* CNC(=O)c1ccc(C2CN(c3cc(C)nc(N)n3)CCO2)nc1 (centres undefined) | 10.5%
* COc1ccc(-c2nc(CCNC(=O)NCC3CCOC3)co2)cc1 (centres undefined) | 6.221%
* COCC1CC2(CCN(Cc3cccnc3)CC2)CN1c1ncccn1.O=C(O)C(F)(F)F.O=C(O)C(F)(F)F.O=C(O)C(F)(F)F (centres undefined) | 22.3%
* CN(CC1=CCCN(Cc2cccc(C#N)c2)C1)C(=O)c1ccco1 | 17.18%
* CN(Cc1cc[nH]n1)C(=O)c1cn(Cc2c(F)cccc2F)nn1 | 24.65%
* COc1cc(-c2cc(OC)c(OC)c(OC)c2)ncn1 | -17.54%
* Cc1ncccc1Oc1ncnc(N2CCC(O)(CO)CC2)c1C | -3.557%
* Cc1cc(N(C)C)nc(C2(C)CCCN2C(=O)c2ccn(C)n2)n1 (centres undefined) | -12.7%
* COc1cccc(S(=O)(=O)NC(=O)C2CC(c3ccccc3)=NO2)c1 (centres undefined) | 14.58%
* O=C(C1SCCc2ccccc21)N1CCC(O)CC1 (centres undefined) | 32.31%
* CC(c1nc(C(C)(C)C)no1)N1CCN(Cc2ccco2)CC1 (centres undefined) | 11.7%
* Cc1cccc2c1nc1n2[C@@H](CNC(=O)C2CCOCC2)COC1 | 17.09%
* Cc1occc1C(=O)N1CCCC2(CCN(c3ccccc3)C2=O)C1 (centres undefined) | -49.81%
* Cc1ncc(C(=O)N2CCCC2c2c(C)nn(C)c2C)s1 (centres undefined) | 1.015%
* COCCC(=O)N1CCN(CC2CC2)c2nc(C)ccc2C1.O=C(O)C(F)(F)F | -8.323%
* Cc1nc(C2CCNCC2)cc(N(C)CCc2cn[nH]c2)n1 | 2.662%
* Cc1noc(NC(=O)c2ccc(C)c(F)c2)n1 | 108.6%
* O=C(O)C(F)(F)F.O=C(c1cccc(Cl)c1)N1CCCC2(CCCNC2)C1 (centres undefined) | -6.288%
* Cc1ccc(C2(O)CCN(C(=O)CCn3c(C)cccc3=O)CC2)nc1 | -12.13%
* COCC(=O)NCCc1nc(N(C)C)ncc1-c1ccncc1 | -12.08%
* CCn1c(CN(C)C)nnc1C1CCN(Cc2ccccc2)CC1 | 11.59%
* CN1CCC(C(=O)NCc2nncn2-c2ccccc2)CC1=O (centres undefined) | 10.21%
* CCOCc1ccccc1NC(=O)NCC(C)(O)c1ccsc1 (centres undefined) | -17.15%
* O=C(c1cccc(C2CCNC2)c1)N1CCC(c2ccncc2)CC1 (centres undefined) | 7.989%
* Cc1cc2c(=O)n3c(nc2s1)CCN(Cc1[nH]cnc1C)CC3.Cl | 7.88%

For reference, 5 entries once more:

Compound	percent effect
[H][C@@]12COC[C@]1(COc1cccnc1)CN(C(=O)c1ccc(C)nc1)C2	-24.63
COc1ccc(-c2nc(CCNC(=O)NCC3CCOC3)co2)cc1 (centres undefined)	6.221
[H][C@@]12COC[C@]1([H])[C@@H](OC)CN2C(=O)c1ccc2c(c1)OCO2	-17.22
Cc1nc(C2CCNCC2)cc(N(C)CCc2cn[nH]c2)n1	2.662
CCc1cc(N2CCC(NC(=O)CCC3CCCO3)CC2)ncn1 (centres undefined)	-3.43